# Measured values taken from the supplement of paper PMC8728848.
# Some of the results follow.
# B1: GS7807G-bfa-506-18-506 (Bacteroides fragilis) (protein)
# chain: ASCDKFDEINTDPDATTKVTSSLLATGLLLDITSSSASKSFIYDELLAKQMAWGESMEDYQYNVFGRSGFGGYTTLINAQKMVESVSDDNVNAYDGLAHFIKAYKIFYMSMEMGDLPYEEALQGELGLVRPKYNTQKEVMNFILSDLETAYELFSTAKDFDGDPILGGSISKWKKATTAFQLKVLMHLSKKESDADLKVKERFARIVASGSLMESNEDNLQMKYADKANTVYPFHNTNTKHAGYAMLSTMLIDKFKATGDIRMFYYAKPAKAKLNEGVTADSWDAYIGTDPSLPFEQIEKAYATEQYSGFNARYTDYPSGEPVVRLGYAEQNFILAEAAVRGWISGDASAYYKKAIRAHMEFIASNTPDEEVYHHGHPITEEAIAAFLETPAIQLSGEKEEDIEKILTQRYLASFMQHPYDVYYDYRRTGYPVLPINPATNRNTMNDRLPMRWMYPKSESDYNLEHQNEALERQFGGVDDVNKLMWILQ
# Tests used:
# Experiment in all cases: glycan array binding signal (z-score within array); higher = stronger binding
# Conditions in all cases: glycan notation: IUPAC condensed, linker removed
# [1] = target: GlcNAc(b1-3)Gal(b1-4)GlcNAc(b1-3)Gal(b1-4)GlcNAc(b1-2)Man(a1-3)[GlcNAc(b1-3)Gal(b1-4)GlcNAc(b1-3)Gal(b1-4)GlcNAc(b1-2)Man(a1-6)]Man(b1-4)GlcNAc(b1-4)[Fuc(a1-6)]GlcNAc
# Procedure, shortened: (§1)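 The Consortium for Functional Glycomics database supplied 3228 glycan arrays, of which those lacking an available protein sequence were dropped. The binding signal, a within-array Z-score, was averaged across arrays of the same protein sequence and across linkers. Negative scores can be read as non-binding.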
# [2] = target: GlcNAc(b1-3)Gal(b1-4)GlcNAc(b1-3)Gal(b1-4)GlcNAc(b1-2)[GlcNAc(b1-3)Gal(b1-4)GlcNAc(b1-3)Gal(b1-4)GlcNAc(b1-6)]Man(a1-6)[GlcNAc(b1-3)Gal(b1-4)GlcNAc(b1-3)Gal(b1-4)GlcNAc(b1-2)Man(a1-3)]Man(b1-4)GlcNAc(b1-4)[Fuc(a1-6)]GlcNAc
# Procedure, shortened: as §1
# [3] = target: GlcNAc(b1-3)Gal(b1-4)GlcNAc(b1-3)Gal(b1-4)GlcNAc(b1-3)Gal(b1-4)GlcNAc(b1-2)Man(a1-3)[GlcNAc(b1-3)Gal(b1-4)GlcNAc(b1-3)Gal(b1-4)GlcNAc(b1-3)Gal(b1-4)GlcNAc(b1-2)Man(a1-6)]Man(b1-4)GlcNAc(b1-4)GlcNAc
# Procedure, shortened: as §1
# [4] = target: GlcNAc(b1-3)Gal(b1-4)GlcNAc(b1-3)Gal(b1-4)GlcNAc(b1-3)Gal(b1-4)GlcNAc(b1-2)Man(a1-3)[GlcNAc(b1-3)Gal(b1-4)GlcNAc(b1-3)Gal(b1-4)GlcNAc(b1-3)Gal(b1-4)GlcNAc(b1-2)Man(a1-6)]Man(b1-4)GlcNAc(b1-4)[Fuc(a1-6)]GlcNAc
# Procedure, shortened: as §1
# [5] = target: GlcNAc(b1-3)Gal(b1-4)GlcNAc(b1-3)Gal(b1-4)GlcNAc(b1-3)Gal(b1-4)GlcNAc(b1-2)[GlcNAc(b1-3)Gal(b1-4)GlcNAc(b1-3)Gal(b1-4)GlcNAc(b1-3)Gal(b1-4)GlcNAc(b1-6)]Man(a1-6)[GlcNAc(b1-3)Gal(b1-4)GlcNAc(b1-3)Gal(b1-4)GlcNAc(b1-3)Gal(b1-4)GlcNAc(b1-2)Man(a1-3)]Man(b1-4)GlcNAc(b1-4)[Fuc(a1-6)]GlcNAc
# Procedure, shortened: as §1
# [6] = target: GlcNAc(b1-3)Gal(b1-4)GlcNAc(b1-3)Gal(b1-4)GlcNAc(b1-3)Gal(b1-4)GlcNAc(b1-3)Gal(b1-4)GlcNAc(b1-2)Man(a1-3)[GlcNAc(b1-3)Gal(b1-4)GlcNAc(b1-3)Gal(b1-4)GlcNAc(b1-3)Gal(b1-4)GlcNAc(b1-3)Gal(b1-4)GlcNAc(b1-2)Man(a1-6)]Man(b1-4)GlcNAc(b1-4)GlcNAc
# Procedure, shortened: as §1
# [7] = target: GlcNAc(b1-3)Gal(b1-4)GlcNAc(b1-3)Gal(b1-4)GlcNAc(b1-3)Gal(b1-4)GlcNAc(b1-3)Gal(b1-4)GlcNAc(b1-2)Man(a1-3)[GlcNAc(b1-3)Gal(b1-4)GlcNAc(b1-3)Gal(b1-4)GlcNAc(b1-3)Gal(b1-4)GlcNAc(b1-3)Gal(b1-4)GlcNAc(b1-2)Man(a1-6)]Man(b1-4)GlcNAc(b1-4)[Fuc(a1-6)]GlcNAc
# Procedure, shortened: as §1
# [8] = target: GlcNAc(b1-3)Gal(b1-4)GlcNAc(b1-3)Gal(b1-4)GlcNAc(b1-3)Gal(b1-4)GlcNAc(b1-3)Gal(b1-4)GlcNAc(b1-2)[GlcNAc(b1-3)Gal(b1-4)GlcNAc(b1-3)Gal(b1-4)GlcNAc(b1-3)Gal(b1-4)GlcNAc(b1-3)Gal(b1-4)GlcNAc(b1-6)]Man(a1-6)[GlcNAc(b1-3)Gal(b1-4)GlcNAc(b1-3)Gal(b1-4)GlcNAc(b1-3)Gal(b1-4)GlcNAc(b1-3)Gal(b1-4)GlcNAc(b1-2)Man(a1-3)]Man(b1-4)GlcNAc(b1-4)[Fuc(a1-6)]GlcNAc
# Procedure, shortened: as §1
# [9] = target: GlcNAc(b1-3)Gal(b1-4)GlcNAc(b1-3)Gal(b1-4)GlcNAc(b1-3)GalNAc
# Procedure, shortened: as §1
# [10] = target: GlcNAc(b1-3)Gal(b1-4)GlcNAc(b1-3)GalNAc
# Procedure, shortened: as §1
# [11] = target: GlcNAc(b1-3)Gal(b1-4)GlcNAc(b1-3)[GlcNAc(b1-3)Gal(b1-4)GlcNAc(b1-3)]GalNAc
# Procedure, shortened: as §1
# [12] = target: GlcNAc(b1-3)Gal(b1-4)GlcNAc(b1-6)[Gal(b1-3)]GalNAc
# Procedure, shortened: as §1
# [13] = target: GlcNAc(b1-3)Gal(b1-4)GlcNAc(b1-6)[GlcNAc(b1-3)Gal(b1-3)]GalNAc
# Procedure, shortened: as §1
# [14] = target: GlcNAc(b1-3)Gal(b1-4)GlcNAc(b1-6)[GlcNAc(b1-3)]Gal(b1-4)GlcNAc
# Procedure, shortened: as §1
# GlcNAc(b1-3)GalNAc = target: GlcNAc(b1-3)GalNAc
# Procedure, shortened: as §1
# GlcNAc(b1-3)Man = target: GlcNAc(b1-3)Man
# Procedure, shortened: as §1
# [15] = target: GlcNAc(b1-3)[GlcNAc(b1-4)][GlcNAc(b1-6)]GlcNAc
# Procedure, shortened: as §1
# [16] = target: GlcNAc(b1-3)[GlcNAc(b1-6)]Gal(b1-4)GlcNAc
# Procedure, shortened: as §1
# [17] = target: GlcNAc(b1-3)[GlcNAc(b1-6)]GalNAc
# Procedure, shortened: as §1
# [18] = target: GlcNAc(b1-4)Gal(b1-4)GlcNAc
# Procedure, shortened: as §1
# GlcNAc(b1-4)GlcNAc = target: GlcNAc(b1-4)GlcNAc
# Procedure, shortened: as §1
# [19] = target: GlcNAc(b1-4)GlcNAc(b1-4)GlcNAc
# Procedure, shortened: as §1
# [20] = target: GlcNAc(b1-4)GlcNAc(b1-4)GlcNAc(b1-4)GlcNAc(b1-4)GlcNAc
# Procedure, shortened: as §1
# [21] = target: GlcNAc(b1-4)GlcNAc(b1-4)GlcNAc(b1-4)GlcNAc(b1-4)GlcNAc(b1-4)GlcNAc
# Procedure, shortened: as §1
# [22] = target: GlcNAc(b1-4)[GlcNAc(b1-6)]GalNAc
# Procedure, shortened: as §1
# [23] = target: GlcNAc(b1-6)Gal(b1-4)GlcNAc
# Procedure, shortened: as §1
# GlcNAc(b1-6)GalNAc = target: GlcNAc(b1-6)GalNAc
# Procedure, shortened: as §1
# [24] = target: GlcNAc6S(b1-3)Gal(b1-4)GlcNAc
# Procedure, shortened: as §1
# Kdn(a2-3)Gal(b1-3)GalNAc = target: Kdn(a2-3)Gal(b1-3)GalNAc
# Procedure, shortened: as §1
# Kdn(a2-3)Gal(b1-3)GlcNAc = target: Kdn(a2-3)Gal(b1-3)GlcNAc
# Procedure, shortened: as §1
# Kdn(a2-3)Gal(b1-4)Glc = target: Kdn(a2-3)Gal(b1-4)Glc
# Procedure, shortened: as §1
# Kdn(a2-3)Gal(b1-4)GlcNAc = target: Kdn(a2-3)Gal(b1-4)GlcNAc
# Procedure, shortened: as §1
# [25] = target: Kdn(a2-3)Gal(b1-4)[Fuc(a1-3)]GlcNAc
# Procedure, shortened: as §1
# Kdn(a2-6)Gal(b1-4)GlcNAc = target: Kdn(a2-6)Gal(b1-4)GlcNAc
# Procedure, shortened: as §1
# [26] = target: Man(a1-2)Man(a1-2)Man(a1-3)Man
# Procedure, shortened: as §1
# [27] = target: Man(a1-2)Man(a1-2)Man(a1-6)[Man(a1-3)]Man
# Procedure, shortened: as §1
# Man(a1-2)Man(a1-3)Man = target: Man(a1-2)Man(a1-3)Man
# Procedure, shortened: as §1
# [28] = target: Man(a1-2)Man(a1-3)[Man(a1-2)Man(a1-6)]Man
# Procedure, shortened: as §1
binder,measurement,setting,value
B1,glycan array binding signal (z-score),[1],0.151
same,glycan array binding signal (z-score),[2],0.397
same,glycan array binding signal (z-score),[3],0.543
same,glycan array binding signal (z-score),[4],-0.297
same,glycan array binding signal (z-score),[5],0.033
same,glycan array binding signal (z-score),[6],-0.286
same,glycan array binding signal (z-score),[7],-0.27
same,glycan array binding signal (z-score),[8],0.162
same,glycan array binding signal (z-score),[9],-0.601
same,glycan array binding signal (z-score),[10],-0.4
same,glycan array binding signal (z-score),[11],-0.486
same,glycan array binding signal (z-score),[12],-0.548
same,glycan array binding signal (z-score),[13],-0.552
same,glycan array binding signal (z-score),[14],-0.946
same,glycan array binding signal (z-score),GlcNAc(b1-3)GalNAc,-0.787
same,glycan array binding signal (z-score),GlcNAc(b1-3)Man,-0.485
same,glycan array binding signal (z-score),[15],-0.584
same,glycan array binding signal (z-score),[16],-0.679
same,glycan array binding signal (z-score),[17],-0.871
same,glycan array binding signal (z-score),[18],-0.511
same,glycan array binding signal (z-score),GlcNAc(b1-4)GlcNAc,-0.628
same,glycan array binding signal (z-score),[19],0.019
same,glycan array binding signal (z-score),[20],-0.896
same,glycan array binding signal (z-score),[21],-0.22
same,glycan array binding signal (z-score),[22],-0.758
same,glycan array binding signal (z-score),[23],-0.682
same,glycan array binding signal (z-score),GlcNAc(b1-6)GalNAc,0.335
same,glycan array binding signal (z-score),[24],-0.63
same,glycan array binding signal (z-score),Kdn(a2-3)Gal(b1-3)GalNAc,-0.399
same,glycan array binding signal (z-score),Kdn(a2-3)Gal(b1-3)GlcNAc,-0.537
same,glycan array binding signal (z-score),Kdn(a2-3)Gal(b1-4)Glc,-0.306
same,glycan array binding signal (z-score),Kdn(a2-3)Gal(b1-4)GlcNAc,-0.294
same,glycan array binding signal (z-score),[25],2.05
same,glycan array binding signal (z-score),Kdn(a2-6)Gal(b1-4)GlcNAc,-0.702
same,glycan array binding signal (z-score),[26],-0.899
same,glycan array binding signal (z-score),[27],-0.563
same,glycan array binding signal (z-score),Man(a1-2)Man(a1-3)Man,-0.825
same,glycan array binding signal (z-score),[28],-1.08

# Retrieved one by one from the entries so far, 3 records:
binder,measurement,setting,value
B1,glycan array binding signal (z-score),[16],-0.679
same,glycan array binding signal (z-score),[5],0.033
same,glycan array binding signal (z-score),[20],-0.896
